Data source: PubChem BioAssay AID504764 (Drosophila RNAi Screening Center, 2011)

- Assay: 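Genes whose knock-down alters Notch-dependent transcription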 (primary screen)
- Cells: Drosophila Kc167 cells
- Knock-down reagent: long dsRNA against Drosophila genes
- Time to read-out: about 5 days (4 days dsRNA, then 24 h after transfection)
- Challenge: transfection of constitutively active membrane-tethered Notch lacking the extracellular domain, read 24 h later
- Measurement: 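Firefly luciferase from an E(spl)m3 reporter with active Notch, plus control-promoter and uninduced reporter wells for normalisation; unnormalised counts, duplicate wells a and b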
- Direction: induced reporter light, run 1, well a and induced reporter light, run 1, well b: higher = more light from the Notch target reporter with active Notch; control promoter light, run 1, well a and control promoter light, run 1, well b: higher = more light from the viral control promoter (cell number, transfection, viability); uninduced reporter light, run 1, well a: higher = more light from the Notch target reporter without active Notch
- Rule for the call: 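Hit if the duplicate-averaged log2 ratio of induced to control-promoter light gives a plate-wise z beyond ±2, or induced to uninduced beyond ±1.8; weak-control or discordant-duplicate wells dropped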
- Meaning of the calls: active = modifier hit (raised or lowered Notch signal); inactive = not a hit
In all, the deposit lists about 22,000 reagents; this is an unselected part of those with a known target gene and a result. In the full data, 403 (1.9%) are marked active. 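Unnormalised raw counts per well; ratio z-scores behind the hit calls and whether each hit raises or lowers signal are not deposited.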 Unmarked entries are inactive. Names joined by + are all predicted targets of the reagent. Not given: the amount of reagent.

After knock-down of Moe [DRSC18684] the results were induced reporter light, run 1, well a = 2.75e5; induced reporter light, run 1, well b = 2.45e5; control promoter light, run 1, well a = 2.54e5; control promoter light, run 1, well b = 2.37e5; uninduced reporter light, run 1, well a = 15350. CG14883 [DRSC15007] gave induced reporter light, run 1, well a = 2.11e5; induced reporter light, run 1, well b = 2.21e5; control promoter light, run 1, well a = 2.37e5; control promoter light, run 1, well b = 2.28e5; uninduced reporter light, run 1, well a = 18775. For scyl [DRSC11392], the entry reads induced reporter light, run 1, well a = 1.52e5; induced reporter light, run 1, well b = 1.34e5; control promoter light, run 1, well a = 2.07e5; control promoter light, run 1, well b = 2.30e5; uninduced reporter light, run 1, well a = 9500. Silencing of ssp6 [DRSC08791] gave: induced reporter light, run 1, well a = 2.11e5; induced reporter light, run 1, well b = 1.76e5; control promoter light, run 1, well a = 2.04e5; control promoter light, run 1, well b = 1.73e5; uninduced reporter light, run 1, well a = 10815. For ssp6 [DRSC10677] the deposit lists induced reporter light, run 1, well a = 1.68e5; induced reporter light, run 1, well b = 1.98e5; control promoter light, run 1, well a = 2.47e5; control promoter light, run 1, well b = 2.32e5; uninduced reporter light, run 1, well a = 9920. For CG18675 [DRSC08536] the deposit lists induced reporter light, run 1, well a = 1.90e5; induced reporter light, run 1, well b = 1.47e5; control promoter light, run 1, well a = 2.72e5; control promoter light, run 1, well b = 2.14e5; uninduced reporter light, run 1, well a = 12150.

Knock-down of CG11309 [DRSC11650] resulted in: induced reporter light, run 1, well a = 1.27e5; induced reporter light, run 1, well b = 1.26e5; control promoter light, run 1, well a = 89785; control promoter light, run 1, well b = 90180; uninduced reporter light, run 1, well a = 9920. Knock-down of CG4267 [DRSC00647] came out at: induced reporter light, run 1, well a = 1.02e5; induced reporter light, run 1, well b = 1.09e5; control promoter light, run 1, well a = 88425; control promoter light, run 1, well b = 44525; uninduced reporter light, run 1, well a = 9100. Against Ald1 [DRSC14109] the deposit lists induced reporter light, run 1, well a = 1.36e5; induced reporter light, run 1, well b = 1.63e5; control promoter light, run 1, well a = 1.99e5; control promoter light, run 1, well b = 2.26e5; uninduced reporter light, run 1, well a = 12538. Depletion of CG14767 [DRSC06500] resulted in: induced reporter light, run 1, well a = 1.78e5; induced reporter light, run 1, well b = 1.56e5; control promoter light, run 1, well a = 1.50e5; control promoter light, run 1, well b = 1.53e5; uninduced reporter light, run 1, well a = 18540. kar [DRSC14496] gave induced reporter light, run 1, well a = 1.34e5; induced reporter light, run 1, well b = 1.15e5; control promoter light, run 1, well a = 87550; control promoter light, run 1, well b = 70555; uninduced reporter light, run 1, well a = 11770. CG8837 [DRSC00711] showed induced reporter light, run 1, well a = 2.07e5; induced reporter light, run 1, well b = 1.63e5; control promoter light, run 1, well a = 2.19e5; control promoter light, run 1, well b = 2.12e5; uninduced reporter light, run 1, well a = 11925.

Depletion of CG8420 [DRSC16418] resulted in: induced reporter light, run 1, well a = 1.21e5; induced reporter light, run 1, well b = 1.04e5; control promoter light, run 1, well a = 1.05e5; control promoter light, run 1, well b = 88605; uninduced reporter light, run 1, well a = 9805. Depletion of CG2182 [DRSC12308] came out at: induced reporter light, run 1, well a = 1.62e5; induced reporter light, run 1, well b = 1.60e5; control promoter light, run 1, well a = 1.02e5; control promoter light, run 1, well b = 91220; uninduced reporter light, run 1, well a = 11930. With knock-down of CG18748 [DRSC15385] the results were induced reporter light, run 1, well a = 67390; induced reporter light, run 1, well b = 91355; control promoter light, run 1, well a = 94825; control promoter light, run 1, well b = 58080; uninduced reporter light, run 1, well a = 4265. Depletion of FeCH [DRSC16948] gave: induced reporter light, run 1, well a = 2.00e5; induced reporter light, run 1, well b = 2.13e5; control promoter light, run 1, well a = 2.42e5; control promoter light, run 1, well b = 2.27e5; uninduced reporter light, run 1, well a = 13160. With knock-down of CG14300 [DRSC14779] the results were induced reporter light, run 1, well a = 1.95e5; induced reporter light, run 1, well b = 1.80e5; control promoter light, run 1, well a = 1.61e5; control promoter light, run 1, well b = 1.56e5; uninduced reporter light, run 1, well a = 12265. With knock-down of wntD [DRSC16423] the results were induced reporter light, run 1, well a = 2.22e5; induced reporter light, run 1, well b = 2.71e5; control promoter light, run 1, well a = 2.39e5; control promoter light, run 1, well b = 2.47e5; uninduced reporter light, run 1, well a = 16630.

For Menl-2 + Menl-1 [DRSC07469] the deposit lists induced reporter light, run 1, well a = 98730; induced reporter light, run 1, well b = 73045; control promoter light, run 1, well a = 1.08e5; control promoter light, run 1, well b = 83920; uninduced reporter light, run 1, well a = 6990. After knock-down of Menl-2 + Menl-1 [DRSC07470], the record shows induced reporter light, run 1, well a = 1.22e5; induced reporter light, run 1, well b = 94335; control promoter light, run 1, well a = 97760; control promoter light, run 1, well b = 71025; uninduced reporter light, run 1, well a = 8160. After knock-down of Gr39a [DRSC01841], the record shows induced reporter light, run 1, well a = 81975; induced reporter light, run 1, well b = 91225; control promoter light, run 1, well a = 79965; control promoter light, run 1, well b = 99970; uninduced reporter light, run 1, well a = 7895. Knock-down of Gr39a [DRSC01842] came out at: induced reporter light, run 1, well a = 66180; induced reporter light, run 1, well b = 78625; control promoter light, run 1, well a = 81225; control promoter light, run 1, well b = 95735; uninduced reporter light, run 1, well a = 8750. Depletion of Xpac [DRSC18730] resulted in: induced reporter light, run 1, well a = 2.32e5; induced reporter light, run 1, well b = 2.29e5; control promoter light, run 1, well a = 4.62e5; control promoter light, run 1, well b = 4.54e5; uninduced reporter light, run 1, well a = 17110. Against hob [DRSC08426] the deposit lists induced reporter light, run 1, well a = 1.41e5; induced reporter light, run 1, well b = 1.27e5; control promoter light, run 1, well a = 1.06e5; control promoter light, run 1, well b = 34430; uninduced reporter light, run 1, well a = 11320.

Part of the list above, set out differently.
CG4267 [DRSC00647]
- induced reporter light, run 1, well a: 1.02e5
- induced reporter light, run 1, well b: 1.09e5
- control promoter light, run 1, well a: 88425
- control promoter light, run 1, well b: 44525
- uninduced reporter light, run 1, well a: 9100

Ald1 [DRSC14109]
- induced reporter light, run 1, well a: 1.36e5
- induced reporter light, run 1, well b: 1.63e5
- control promoter light, run 1, well a: 1.99e5
- control promoter light, run 1, well b: 2.26e5
- uninduced reporter light, run 1, well a: 12538
